Median seed-adjusted z-score data for 108 sequences are collected here from PubChem BioAssay AID1347426 (Functional Genomics Laboratory (NCATS/FGL), 2020).

Out of some 31,000 sequences screened, about 1,400 (4.5%) were called active.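 Rule for the calls: active = median seed-adjusted z-score above 1 or below -1; inactive = the rest.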 The list shows a part of the results.

A short description of this experiment: Novel Modifiers of Survival Motor Neuron (SMN) Protein: Gene Identification via Genome-wide siRNA Screen.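 Note: luminescence tracks full-length SMN protein made from the SMN2 reporter.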 The settings on record: HEK293T SMN2-luciferase reporter, siRNA knockdown, 72 h; actives lie on both sides. In a few lines:
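Luciferase signal, proportional to full-length SMN made from an SMN2 cDNA reporter in stable HEK293T cells, was read 72 h after siRNA reverse transfection. Values were expressed as MAD scores after non-targeting-control normalization and log10 conversion; seed analysis flagged off-targets.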
For the sequence GAGUAUCCUGAAUACUUUUTT against HSD17B12, the median seed-adjusted z-score was inactive: 0.0719.

In the case of GCUUAUGGUUGAUCAGUUATT against RNF7, the median seed-adjusted z-score is active: -1.18.

Regarding GCAAAGCGGUUGAGGGAAATT against ISLR, the median seed-adjusted z-score is inactive: 0.00807.

For the sequence UGAAGGCUGUUGCGCCGAATT against EGR4, the median seed-adjusted z-score was inactive: 0.

Take CAGUGAAACUGCACCUCUATT against TGM1: the median seed-adjusted z-score is inactive: -0.286.

As for GCACAACAGAUACUUCGUUTT against ERCC3, the median seed-adjusted z-score is inactive: 0.155.

On to GGAACACGAUGAACCUAUUTT against NAP1L1, for which the median seed-adjusted z-score is inactive: 0.263.

On to GGCCCUUACAAGAAGGUGATT against METAP1, for which the median seed-adjusted z-score is inactive: -0.139.

For “GCCUCGUUUUUGGACUGAUTT against GALNAC4S-6ST”, the median seed-adjusted z-score is inactive: 0.218.

As for GCACCUAUAUUUACUACUUTT against TTC3, the median seed-adjusted z-score is active: -1.17.

Regarding GGAAUUAAGUCAACCACGUTT against SPAG9, the median seed-adjusted z-score is inactive: 0.0795.

For the sequence CCUUCACUUGAGUAGCAGATT against KLHL8, the median seed-adjusted z-score is inactive: -0.835.

As for CGAAGAGUGAGCUAACAAATT against 6-Sep, the median seed-adjusted z-score is inactive: -0.732.

Regarding CGGUAGUGAUAAAAGCUCATT against TPX2, the median seed-adjusted z-score was inactive: -0.564.

Regarding GCAAGGAAGAAAUUUGUGATT against ERCC1, the median seed-adjusted z-score is inactive: -0.566.

Take CGGUGCUUCGGAUCUACUATT against CDIPT: the median seed-adjusted z-score was inactive: 0.303.

As to GCGGGACACUGUUAAUCCATT against SYTL4, the median seed-adjusted z-score was inactive: 0.694.

For GGAUGACAAUUUAAUUUGUTT against PAIP1, the median seed-adjusted z-score is inactive: -0.0178.

Turning to AGCUGAUAGUAUCCGGCUATT against IRF5, the median seed-adjusted z-score was inactive: -0.146.

Consider CAAUAUCUACAGGAGAAAATT against PPIL6, for which the median seed-adjusted z-score is inactive: -0.215.

Regarding GGUGAAUCACUAUUCAAUUTT against RNF128, the median seed-adjusted z-score was inactive: -0.377.

On to CCUUGGUGCUGUAUAUCUATT against FGD1, for which the median seed-adjusted z-score is inactive: 0.414.

On to GCUCAGCAAUUUUCCGGAATT against SLC2A2, for which the median seed-adjusted z-score is inactive: -0.498.

Consider CCAACUUUAUGUCUACUUUTT against MCART6, for which the median seed-adjusted z-score was inactive: 0.714.

Turning to GCAUCUGAUCGAACACCUATT against ZKSCAN5, the median seed-adjusted z-score was inactive: -0.229.

Take GGCUAUGAGGGUUCUCUUATT against RBPMS: the median seed-adjusted z-score was inactive: 0.

GCAAGUAGAUAACAAGUUUTT against MLH3: the median seed-adjusted z-score is inactive: 0.228.

For GAACGAGAGUAUGAGAAGATT against PLXNB2, the median seed-adjusted z-score was inactive: -0.237.

For the sequence GAAGGACCCGGUGAAGAAATT against HNRNPAB, the median seed-adjusted z-score is inactive: -0.631.

Take GAACAUAUAGAAAUCCUUATT against MCTS1: the median seed-adjusted z-score is inactive: 0.116.

For UCAGAUCUUUGGACGCAAATT against ECSIT, the median seed-adjusted z-score is inactive: -0.116.

On to GGACUAAGAGUCAAAAGAATT against CLEC4C, for which the median seed-adjusted z-score is inactive: 0.664.

In the case of CCAAGAUGCUCAUAUAACATT against SYT14, the median seed-adjusted z-score is inactive: 0.0794.

On to GUCUUUUGAUUACAACUAUTT against FUSIP1, for which the median seed-adjusted z-score is inactive: 0.865.

As for GGAGGACAAAUAUGAAGAATT against TPM4, the median seed-adjusted z-score was inactive: -0.407.

Turning to GGUCCAAUCUCAGGGCAAATT against DIS3L, the median seed-adjusted z-score was inactive: 0.

For GCAUAUUCCAAACUAGUGATT against STARD6, the median seed-adjusted z-score was inactive: 0.0605.

With CGAUGAUGACAAAAGACGATT against GUCY2C, the median seed-adjusted z-score is inactive: -0.0181.

Regarding GAUGAUGAAUUGUACUCUATT against SBF2, the median seed-adjusted z-score was inactive: 0.569.

Consider GAAGUUCACUUUCGAGUUATT against MYOZ3, for which the median seed-adjusted z-score was inactive: 0.16.

Consider GAGAGAUUCUUAAAGAGCUTT against RDH16, for which the median seed-adjusted z-score is inactive: 0.421.

Take GGAAUUUUCAUCUAGGAUUTT against ASGR1: the median seed-adjusted z-score was inactive: -0.128.

For the sequence GCUUUAGUCUAGCAAGUCUTT against NIPA2, the median seed-adjusted z-score is inactive: -0.103.

Turning to CAGUGAGCAUUGAACGGUUTT against ADAMTS6, the median seed-adjusted z-score is inactive: 0.023.

Turning to CAUCAUCAUUCUUAUCCUUTT against STX7, the median seed-adjusted z-score was inactive: 0.251.

Take ACAGCGACGCCAAGACAGATT against CLIC3: the median seed-adjusted z-score was inactive: 0.

Turning to CGAAAAUCACAGUUAUCAATT against CDON, the median seed-adjusted z-score is inactive: 0.777.

For CAACUUCAGAUAUAUACUUTT against RGS17, the median seed-adjusted z-score is inactive: -0.627.

Consider GGAACACCCUGACACGAAATT against KIF14, for which the median seed-adjusted z-score was inactive: 0.

Consider CAUCCUCAUUUGAAACCGUTT against CREBL1, for which the median seed-adjusted z-score was inactive: -0.348.

On to GCUCAUUGUACAUCUCAGATT against ZNF26, for which the median seed-adjusted z-score was inactive: 0.

For the sequence GAACCGGGAAGAAAACCUATT against MICAL1, the median seed-adjusted z-score is inactive: 0.31.

In the case of GACGAGACCUAGAACCGAATT against SCRT1, the median seed-adjusted z-score is inactive: -0.483.

As for GGAAUAACCGAGAUAAAGATT against BNC2, the median seed-adjusted z-score is inactive: -0.0556.

As for AAUGCUGAGUUAAAGCCAATT against SPINK6, the median seed-adjusted z-score was inactive: 0.275.

As to AGACCAAGAGCGCAUCAAATT against JUNB, the median seed-adjusted z-score was inactive: -0.224.

AGACCAAGCCGUUCCCUGATT against RUNX3: the median seed-adjusted z-score is inactive: -0.489.

Regarding GCGUGAUCCUGGACUAUGATT against EPHB2, the median seed-adjusted z-score is inactive: -0.325.

As to CACCGAGGGUUUUACUGCATT against PPAP2B, the median seed-adjusted z-score was inactive: 0.

Take GGCCUUUAUUCUCACUACUTT against FADS6: the median seed-adjusted z-score is inactive: -0.637.

In the case of GGUUAUAUACCACCUUAUATT against QRSL1, the median seed-adjusted z-score is inactive: -0.539.

Regarding GGACAGUGCAAUGAUCGUATT against FBN1, the median seed-adjusted z-score was inactive: 0.

Regarding GGAGAUUGUUUCACGGAAATT against TBC1D23, the median seed-adjusted z-score is inactive: 0.0932.

In the case of CCACUGAAAGAGUGACUUUTT against CASP1, the median seed-adjusted z-score was inactive: -0.331.

Regarding GCAGCCUUGUUGCUCUUAATT against GCN1L1, the median seed-adjusted z-score was inactive: 0.0513.

Turning to CAAGCAAGGAUGACACGUATT against MKX, the median seed-adjusted z-score is inactive: 0.00623.

On to CCAAACUGGUGACCGACUATT against HBS1L, for which the median seed-adjusted z-score was inactive: -0.509.

For the sequence GAAUAUUACAGACCAUUUUTT against SMA4, the median seed-adjusted z-score is inactive: 0.291.

Regarding CCCUUGAACUCUACAAGAATT against CKM, the median seed-adjusted z-score was inactive: -0.189.

On to GGAAUCUCGUGGAGUAUUATT against LRP2BP, for which the median seed-adjusted z-score was inactive: -0.547.

Turning to GCUUUACUGAGUACAUUGATT against TAF7L, the median seed-adjusted z-score is inactive: -0.14.

For the sequence ACCUCGGACUGGUACAUGATT against SLC38A3, the median seed-adjusted z-score was inactive: -0.177.

For the sequence GCCUUUGCACCGUACAACATT against DTX2, the median seed-adjusted z-score is inactive: 0.0597.

With AGAGCGGUCUGACAGUGGATT against NUDT1, the median seed-adjusted z-score was inactive: -0.175.

On to UAUAUGCACUUGAAAGUAUTT against CSTA, for which the median seed-adjusted z-score was inactive: -0.351.

Turning to GCCCGGUUAUUUCUGGAGATT against DGAT1, the median seed-adjusted z-score was inactive: 0.148.

Regarding CGUGCUCUAUCACCUCUUUTT against PAQR4, the median seed-adjusted z-score is inactive: 0.316.

On to GAAAGUAUUUUAGAAAGUATT against GPR88, for which the median seed-adjusted z-score is inactive: 0.404.

Turning to GCAGUGAUCGGAAGAAACATT against ZIC5, the median seed-adjusted z-score was inactive: 0.

As for GGAUUCGUCCAGACUCAAATT against PRMT5, the median seed-adjusted z-score was inactive: -0.303.

As to GACUAAAAACUUAGUUUAATT against RHCE, the median seed-adjusted z-score is inactive: 0.488.

For the sequence CGGUCUCUGCGAUAUGAUATT against SDHA, the median seed-adjusted z-score is inactive: -0.103.

Turning to CCAAGAUCACGUUCAUGCATT against TTF2, the median seed-adjusted z-score is inactive: 0.282.

Take GGACCGCUGUUUUGGAUUUTT against STX18: the median seed-adjusted z-score was inactive: -0.151.

As for GGCUGUCAUAGACAAGUAUTT against TNN, the median seed-adjusted z-score is inactive: -0.122.

For the sequence CCAUUGAAGUAUCACGAGATT against NR2C1, the median seed-adjusted z-score is inactive: 0.386.

Turning to GCUUUGCUCUGGUGAGUGATT against P2RX7, the median seed-adjusted z-score is inactive: -0.527.

Regarding AUUCAUGCAUCUCAACAAATT against PHF11, the median seed-adjusted z-score was inactive: 0.174.

Take GGUUUAUUCCAAAAAGAAATT against GPR123: the median seed-adjusted z-score is inactive: 0.

For GCUAUGUCCAAACUCAUAATT against SLC46A2, the median seed-adjusted z-score was inactive: 0.

Regarding GCAUAGUUUCGGUCAUCUATT against GBF1, the median seed-adjusted z-score was inactive: -0.162.

For the sequence CCAUAUGAGUGUACUAUCUTT against ZNF791, the median seed-adjusted z-score is inactive: 0.219.

With GUGGAUAAAGCAACAUUUATT against ARHGDIB, the median seed-adjusted z-score was inactive: -0.549.

On to GGACGGGAACUGCUCUUUATT against MYLK, for which the median seed-adjusted z-score was inactive: 0.0226.

For GACCAGUUCAUCUCACUUATT against GALK1, the median seed-adjusted z-score is inactive: 0.315.

Consider GGCUGACCAUGUUUCGAAUTT against CLCN7, for which the median seed-adjusted z-score is inactive: -0.28.

Consider GCUGUAGCCUUGAUGCCUATT against INMT, for which the median seed-adjusted z-score was inactive: 0.863.

Regarding CCACCAUUAUUUCACCCGATT against UBE2I, the median seed-adjusted z-score was inactive: 0.717.

Take GAAGAGAUCUAAGUAUGUUTT against MYO7A: the median seed-adjusted z-score was inactive: -0.0127.

On to ACAUAGUGCUCUUCCUAGATT against CCR4, for which the median seed-adjusted z-score is inactive: 0.

For CCUCUUCACAGGUAUCCGATT against ARAP3, the median seed-adjusted z-score was inactive: -0.00876.

Consider GGAAGGAUAUUACACCUAUTT against MMP24, for which the median seed-adjusted z-score was active: -1.28.

In the case of GCAGUUUGAGCAAUCAGAATT against IGF2BP3, the median seed-adjusted z-score was inactive: -0.636.

Take GAUUGAUCUUUACCCAAGATT against AMZ2: the median seed-adjusted z-score was inactive: 0.26.

On to GCAGAUCCUUGAGAAGCGATT against ACAD9, for which the median seed-adjusted z-score is inactive: -0.384.

Consider GGCGAGGCUUUAUAGUUGATT against ZNF589, for which the median seed-adjusted z-score is inactive: -0.0897.

For the sequence CACUGAAUGAAGACUCAUATT against YWHAQ, the median seed-adjusted z-score is inactive: -0.412.

GCAGGUUCACUUACACUGUTT against COL1A2: the median seed-adjusted z-score was inactive: 0.481.
